Chains of the proteins cited; added tags and fusions are not shown.
UniProt Q0JBA9, entry or part of it: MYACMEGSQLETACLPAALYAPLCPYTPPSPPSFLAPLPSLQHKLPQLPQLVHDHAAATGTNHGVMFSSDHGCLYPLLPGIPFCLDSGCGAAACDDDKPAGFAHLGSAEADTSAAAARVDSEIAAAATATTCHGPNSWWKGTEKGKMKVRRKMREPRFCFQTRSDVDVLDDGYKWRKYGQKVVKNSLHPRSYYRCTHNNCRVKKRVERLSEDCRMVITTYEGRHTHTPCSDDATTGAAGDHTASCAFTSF

The list shows a part of the results.
Each sequence was assayed against OsWRKY34 (Oryza sativa, UniProt Q0JBA9 1-250) (assay: protein-binding microarray (RPBM); PBS, 2% BSA, 51.3 ng/ul salmon testes DNA, 50 uM zinc acetate, 200 nM TF, 25 C, 1 h; high values mean tight binding). Conditions: protein: recombinant; tags: N-terminal polyhistidine and DsRed monomer fusion (pET32a); label: CyDye5-dUTP incorporated in the synthesized complementary strand; 3' TTTTT single-stranded linker to array surface; dsDNA, one strand shown.
How it was run: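 For the binding signal, per-feature fluorescence intensity was read in arbitrary units on an Axon 4000B scanner. Before scanning, a 2% BSA-blocked custom Agilent array made double-stranded with Cy5-dUTP was washed after 1 h at 25 °C with 200 nM protein and 50 µM zinc acetate. The proteins were Ni–NTA-purified transcription factors with N-terminal polyhistidine and DsRed fusions, expressed in E. coli BL21-CodonPlus.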
In the case of “CTCATACCCACCGAGTCTCACCGTCCCGACCCATCTCCTTCGGAGTCACCTAGTGCAG”, the binding signal is reported as 8500 fluorescence intensity (a.u.). With “GGCGGCCAGATCCGGGGCTGGGGAGGCGACGGCGGCGGGGCGGAGTCACCTAGTGCAG” the binding signal was 8710 fluorescence intensity (a.u.). In the case of “CGACTAACCCCGCTATTACTGTGTGCCACGTGGGCAATTACGGAGTCACCTAGTGCAG”, the binding signal is reported as 8580 fluorescence intensity (a.u.). “TTTGTTCACTCCTAACGAGCATACACATCCTTTGGTTTGACGGAGTCACCTAGTGCAG” was tested, and the binding signal was 10600 fluorescence intensity (a.u.). In the case of “TTATTACTGTGTCCAACGCCTTTGCTCCCTTCTTCTTTCTCGGAGTCACCTAGTGCAG”, the binding signal is reported as 9110 fluorescence intensity (a.u.). With “GTAGGCCATGCAAATTAGTCAACTAATCCAGCTCGAGTTCCGGAGTCACCTAGTGCAG” the binding signal was 8200 fluorescence intensity (a.u.). For “CTCTTTCCTCGCCTCCACTCCAACCACCCCGCGATAGCTGCGGAGTCACCTAGTGCAG”, the binding signal was 8320 fluorescence intensity (a.u.). “CATCTCTCGCTCGCTCGCTCGCTCGCCGCTACGCCTCACGCGGAGTCACCTAGTGCAG” was tested, and the binding signal was 10100 fluorescence intensity (a.u.). “GTATCTAGCTTGGAGTAGTTCATTCTTTTTTTTTCCCTTTCGGAGTCACCTAGTGCAG” was tested, and the binding signal was 8170 fluorescence intensity (a.u.). “GATTGTGTGATGTATGTGTGGGGTGCTGGTTATGCTGATTCGGAGTCACCTAGTGCAG” was tested, and the binding signal was 14400 fluorescence intensity (a.u.). With “GGCCGGCACTAGTCGCTTCCGTCCATTGGCGCTACCCTACCGGAGTCACCTAGTGCAG” the binding signal was 10800 fluorescence intensity (a.u.). For “GCGGAGGTGGTGTGGGTGGGTGAGTGAGTGAGGAGTGATGCGGAGTCACCTAGTGCAG”, the binding signal was 17400 fluorescence intensity (a.u.). “GTCGTGCTTGAATCTGCGTTGTGTGGATTTTTTTTCCCCGCGGAGTCACCTAGTGCAG” was tested, and the binding signal was 8740 fluorescence intensity (a.u.). For “TATATATATATATATCCGATCCATTTTCATCCCCACTTAACGGAGTCACCTAGTGCAG”, the binding signal was 8250 fluorescence intensity (a.u.). In the case of “ATTTTGCCATTTTGTATGCTCTATAAATTTGATATGTTTTCGGAGTCACCTAGTGCAG”, the binding signal is reported as 9640 fluorescence intensity (a.u.). For “TCCGTAACTACTCTCTGCTCTCGTCGTTGTTTCATTTGTTCGGAGTCACCTAGTGCAG”, the binding signal was 10300 fluorescence intensity (a.u.). With “CTGCCTGAGCTCACTTGACCTTACCACATGGGTTCAGATTCGGAGTCACCTAGTGCAG” the binding signal was 8620 fluorescence intensity (a.u.). For “CTCCGCCTCCGCCTCCGCCTCCCTCCTCACGCACGCCAAACGGAGTCACCTAGTGCAG”, the binding signal was 8360 fluorescence intensity (a.u.). “TTATCATGTCTACTACTAATCGGGTTGGGAATTGGAATTTCGGAGTCACCTAGTGCAG” was tested, and the binding signal was 11400 fluorescence intensity (a.u.). With “TTTGTGTTGTTTGTGCTGTGTTTGCGCCGTTGACTCTGCCCGGAGTCACCTAGTGCAG” the binding signal was 13600 fluorescence intensity (a.u.). In the case of “CCACCCGCCTCTCAGTCTCTTTCCGACCACGCATATATGTCGGAGTCACCTAGTGCAG”, the binding signal is reported as 14800 fluorescence intensity (a.u.). With “CCAATTTCATTCACTCACACGATCCACATGTTCACAAAACCGGAGTCACCTAGTGCAG” the binding signal was 9850 fluorescence intensity (a.u.). In the case of “TTCTATCCAAGCCCAACTCACACCCACGCTGCTCGGCTCGCGGAGTCACCTAGTGCAG”, the binding signal is reported as 8160 fluorescence intensity (a.u.).
